Experimental data from US20020187938A1 (priority 2000, published 2002).
Some peptides are written in HELM: one residue between dots, names in brackets for other building blocks, links after the first $. Where no end group is shown, it is not given here. The star is where a group is joined. Octanoyl = CCCCCCCC(=O)*

Assay: peptide synthesis
Conditions: whole synthesis, HPLC

PEPTIDE1{G.S.[Ser(Octanoyl)].F.L.S.P.E}$$$$V2.0
purity (crude or final not stated): 97.8%

GSS(Octanoyl)FLSPEAKLQPR
purity (crude or final not stated): 95.0%

H-GSS(Octanoyl)F-OH (N-terminus and C-terminus assumed; SMILES CCCCCCCC(=O)OC[C@H](NC(=O)[C@H](CO)NC(=O)CN)C(=O)N[C@@H](Cc1ccccc1)C(=O)O)
purity (crude or final not stated): 95.6%
